Assay results: PMC9065044
No constants are given. Whether binding was seen depends on the method and setting. Binding seen in cells or lysates may run through a third protein. Here binding means that the protein was enriched with, or labelled near, the bait; the list need not be complete. Tags and fused reporters may be left off the sequences shown.

Molecular target: T1, HA-POU6F1 (pCMV-HA-POU6F1) (human) (UniProt Q14863)
T1 sequence: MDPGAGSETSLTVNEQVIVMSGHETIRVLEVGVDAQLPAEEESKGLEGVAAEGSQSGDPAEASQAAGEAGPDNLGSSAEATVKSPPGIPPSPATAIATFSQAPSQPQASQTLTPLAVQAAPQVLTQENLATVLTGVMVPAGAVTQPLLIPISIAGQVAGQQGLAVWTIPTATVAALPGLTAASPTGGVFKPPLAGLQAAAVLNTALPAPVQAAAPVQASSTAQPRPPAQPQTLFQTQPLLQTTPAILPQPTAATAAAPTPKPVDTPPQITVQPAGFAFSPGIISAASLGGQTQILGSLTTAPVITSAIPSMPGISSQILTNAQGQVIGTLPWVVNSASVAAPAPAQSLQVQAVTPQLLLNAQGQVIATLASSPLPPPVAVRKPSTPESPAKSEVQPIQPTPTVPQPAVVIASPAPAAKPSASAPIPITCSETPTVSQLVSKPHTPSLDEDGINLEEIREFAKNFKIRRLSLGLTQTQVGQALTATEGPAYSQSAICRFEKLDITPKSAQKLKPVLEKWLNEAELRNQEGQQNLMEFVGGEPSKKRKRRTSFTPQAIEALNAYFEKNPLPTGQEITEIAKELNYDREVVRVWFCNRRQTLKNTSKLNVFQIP
Test: affinity purification with mass spectrometry; A549 and HEK293T cells transfected with pCMV-HA-POU6F1; extracts immunoprecipitated with HA antibody or IgG on protein A/G magnetic beads; MS analysis

binding: binds
B1: Retinoid-related orphan receptor alpha (RORA), endogenous (protein, UniProt P35398 1-523)
chain: MESAPAAPDPAASEPGSSGADAAAGSRETPLNQESARKSEPPAPVRRQSYSSTSRGISVTKKTHTSQIEIIPCKICGDKSSGIHYGVITCEGCKGFFRRSQQSNATYSCPRQKNCLIDRTSRNRCQHCRLQKCLAVGMSRDAVKFGRMSKKQRDSLYAEVQKHRMQQQQRDHQQQPGEAEPLTPTYNISANGLTELHDDLSNYIDGHTPEGSKADSAVSSFYLDIQPSPDQSGLDINGIKPEPICDYTPASGFFPYCSFTNGETSPTVSMAELEHLAQNISKSHLETCQYLREELQQITWQTFLQEEIENYQNKQREVMWQLCAIKITEAIQYVVEFAKRIDGFMELCQNDQIVLLKAGSLEVVFIRMCRAFDSQNNTVYFDGKYASPDVFKSLGCEDFISFVFEFGKSLCSMHLTEDEIALFSAFVLMSADRSWLQEKVKIEKLQQKIQLALQHVLQKNHREDGILTKLICKVSTLRALCGRHTEKLMAFKAIYPDIVRLHFPPLYKELFTSEFEPAMQIDG
